From PubChem BioAssay AID330 (DTP/NCI, 2004)
The list does not hold the whole screen: it is rich in T/C values a quarter to a half above the control, in often repeated tests (any T/C) and in doses without a T/C. Other doses and runs of a compound stand elsewhere. T/C is the treated group as % of the vehicle group. Some entries give survivors of the animals treated and no T/C: the source files T/C as zero there, which appears to mark a toxic dose or a test without result, not a measured value. Some doses without a T/C left all or most animals alive at the check, yet need not have been tolerated: the source hardly ever lists a survival T/C far under the control, and the zero likely stands for such cases as well. Survivors were counted at the toxicity check, usually on the fifth day, unless a day is given; later deaths do not show. Schedule codes are those of the source, taken here to give the interval after Q, in days (D) or hours (H), and the number of doses after X. Signs of the kind (2×) stand for listed records that agree. For survival time, the PubChem record calls one and a half times the control and up active, and a quarter to a half above the control has no call in these data; cut-offs in other NCI protocols can differ. Some doses were run more than once; their values stand side by side, smallest first. Some T/C values carry the count of animals alive at the toxicity check (mostly the fifth day); where none is given, no animal had died by that day.

System: P388 leukemia ip, CD2F1 mice, survival T/C
Assay: NCI In Vivo Anticancer Drug Screen. Data for tumor model P388 Leukemia (intraperitoneal) in CD2F1 (CDF1) mice
Settings: T/C endpoint: median survival time, higher T/C = longer survival
[1] = dose: 0.1 mg/kg/injection, schedule: Q01DX009 (ip), vehicle: water

In the case of `Cc1c2oc3c(C)ccc(C(=O)N[C@@H]4C(=O)N[C@H](C(C)C)C(=O)N5CCC[C@H]5C(=O)N(C)CC(=O)N(C)[C@@H](C(C)C)C(=O)O[C@H]4C)c3nc-2c(C(=O)N[C@@H]2C(=O)N[C@H](C(C)C)C(=O)N3CCC[C@H]3C(=O)N(C)CC(=O)N(C)[C@@H](C(C)C)C(=O)O[C@H]2C)c(N)c1=O`, the T/C (dose: 0.01 mg/kg/injection, schedule: Q01DX009 (ip), vehicle: water, evaluated on day 5) is reported as 101, 156, 162 % of control, the T/C (dose: 0.01 mg/kg/injection, schedule: Q01DX009 (ip), vehicle: water, evaluated on day 30) is reported as 136, 153, 157 % of control and the T/C (dose: 0.01 mg/kg/injection, schedule: Q01DX009 (ip), vehicle: water, evaluated on day 43) is reported as 166 % of control. For the same molecule, the T/C (dose: 0.01 mg/kg/injection, schedule: Q01DX009 (ip), vehicle: water, evaluated on day 53) was 162 % of control, the T/C (dose: 0.01 mg/kg/injection, schedule: Q01DX009 (ip), vehicle: water, evaluated on day 67) was 101 % of control and the T/C (dose: 0.02 mg/kg/injection, schedule: Q01DX009 (ip), vehicle: water, evaluated on day 4) was 211 % of control. For the same molecule, the T/C (dose: 0.02 mg/kg/injection, schedule: Q01DX009 (ip), vehicle: water, evaluated on day 5) was 100, 151, 154, 166 (2×), 173, 180, 182, 191, 196, 207, 252 % of control, the T/C (dose: 0.02 mg/kg/injection, schedule: Q01DX009 (ip), vehicle: water, evaluated on day 53) was 180 % of control and the T/C (dose: 0.02 mg/kg/injection, schedule: Q01DX009 (ip), vehicle: water, evaluated on day 67) was 154 % of control. For the same molecule, the T/C (dose: 0.02 mg/kg/injection, schedule: Q01DX009 (ip), vehicle: water, evaluated on day 87) was 196 % of control, the T/C (dose: 0.02 mg/kg/injection, schedule: Q01DX009 (ip), vehicle: water, evaluated on day 90) was 151 and 211 % of control and the T/C (dose: 0.02 mg/kg/injection, schedule: Q01DX009 (ip), vehicle: water, evaluated on day 93) was 182 % of control. The T/C (dose: 0.02 mg/kg/injection, schedule: Q01DX009 (ip), vehicle: water, evaluated on day 94) was 252 % of control, the T/C (dose: 0.02 mg/kg/injection, schedule: Q01DX009 (ip), vehicle: water, evaluated on day 97) was 207 % of control and the T/C (dose: 0.03 mg/kg/injection, schedule: Q01DX009 (ip), vehicle: water, evaluated on day 4) was 273 % of control. The T/C (dose: 0.03 mg/kg/injection, schedule: Q01DX009 (ip), vehicle: water, evaluated on day 5) was 142, 182, 184 (2×), 187, 197, 209, 227, 228, 239 % of control, the T/C (dose: 0.03 mg/kg/injection, schedule: Q01DX009 (ip), vehicle: water, evaluated on day 30) was 166, 181, 191, 230 % of control and the T/C (dose: 0.03 mg/kg/injection, schedule: Q01DX009 (ip), vehicle: water, evaluated on day 43) was 184 % of control. For the same molecule, the T/C (dose: 0.03 mg/kg/injection, schedule: Q01DX009 (ip), vehicle: water, evaluated on day 44) was 142 % of control, the T/C (dose: 0.03 mg/kg/injection, schedule: Q01DX009 (ip), vehicle: water, evaluated on day 53) was 209 % of control and the T/C (dose: 0.03 mg/kg/injection, schedule: Q01DX009 (ip), vehicle: water, evaluated on day 87) was 239 % of control. The T/C (dose: 0.03 mg/kg/injection, schedule: Q01DX009 (ip), vehicle: water, evaluated on day 90) was 182 and 273 % of control, the T/C (dose: 0.03 mg/kg/injection, schedule: Q01DX009 (ip), vehicle: water, evaluated on day 93) was 228 % of control and the T/C (dose: 0.03 mg/kg/injection, schedule: Q01DX009 (ip), vehicle: water, evaluated on day 97) was 227 % of control. The T/C (dose: 0.04 mg/kg/injection, schedule: Q01DX009 (ip), vehicle: water, evaluated on day 4) was 255 % of control, the T/C (dose: 0.04 mg/kg/injection, schedule: Q01DX009 (ip), vehicle: water, evaluated on day 5) was 83, 118, 168, 184, 198, 200 (2×), 203, 210, 222, 234, 279 % of control and the T/C (dose: 0.04 mg/kg/injection, schedule: Q01DX009 (ip), vehicle: water, evaluated on day 43) was 176 % of control [7 of 8 alive]. The T/C (dose: 0.04 mg/kg/injection, schedule: Q01DX009 (ip), vehicle: water, evaluated on day 44) was 203 % of control, the T/C (dose: 0.04 mg/kg/injection, schedule: Q01DX009 (ip), vehicle: water, evaluated on day 53) was 234 % of control and the T/C (dose: 0.04 mg/kg/injection, schedule: Q01DX009 (ip), vehicle: water, evaluated on day 67) was 200 % of control. The T/C (dose: 0.04 mg/kg/injection, schedule: Q01DX009 (ip), vehicle: water, evaluated on day 87) was 222 % of control, the T/C (dose: 0.04 mg/kg/injection, schedule: Q01DX009 (ip), vehicle: water, evaluated on day 90) was 184 and 255 % of control and the T/C (dose: 0.04 mg/kg/injection, schedule: Q01DX009 (ip), vehicle: water, evaluated on day 93) was 210 % of control. The T/C (dose: 0.04 mg/kg/injection, schedule: Q01DX009 (ip), vehicle: water, evaluated on day 97) was 279 % of control, the survivor count (dose: 0.04 mg/kg/injection, schedule: Q01DX009 (ip), vehicle: water) was 8 of 8 and the T/C (dose: 0.04 mg/kg/injection, schedule: Q04DX003 (ip), vehicle: saline) was 137 % of control. For the same molecule, the T/C (dose: 0.05 mg/kg/injection, schedule: Q01DX009 (ip), vehicle: water, evaluated on day 4) was 247 % of control, the T/C (dose: 0.05 mg/kg/injection, schedule: Q01DX009 (ip), vehicle: water, evaluated on day 5) was 81, 159, 176, 218, 225, 230, 237, 241, 290, 301, 307 % of control and the T/C (dose: 0.05 mg/kg/injection, schedule: Q01DX009 (ip), vehicle: water, evaluated on day 30) was 96, 160, 202, 216 % of control. The T/C (dose: 0.05 mg/kg/injection, schedule: Q01DX009 (ip), vehicle: water, evaluated on day 44) was 237 % of control, the T/C (dose: 0.05 mg/kg/injection, schedule: Q01DX009 (ip), vehicle: water, evaluated on day 53) was 241 % of control and the T/C (dose: 0.05 mg/kg/injection, schedule: Q01DX009 (ip), vehicle: water, evaluated on day 87) was 290 % of control. For the same molecule, the T/C (dose: 0.05 mg/kg/injection, schedule: Q01DX009 (ip), vehicle: water, evaluated on day 90) was 218 and 247 % of control, the T/C (dose: 0.05 mg/kg/injection, schedule: Q01DX009 (ip), vehicle: water, evaluated on day 93) was 307 % of control and the T/C (dose: 0.05 mg/kg/injection, schedule: Q01DX009 (ip), vehicle: water, evaluated on day 97) was 225 % of control. The survivor count (dose: 0.05 mg/kg/injection, schedule: Q01DX009 (ip), vehicle: water) was 8 of 8, the T/C (dose: 0.06 mg/kg/injection, schedule: Q01DX009 (ip), vehicle: water, evaluated on day 4) was 376 % of control and the T/C (dose: 0.06 mg/kg/injection, schedule: Q01DX009 (ip), vehicle: water, evaluated on day 5) was 70, 80, 97, 99, 111, 220, 221, 233, 271, 306, 350 % of control. For the same molecule, the T/C (dose: 0.06 mg/kg/injection, schedule: Q01DX009 (ip), vehicle: water, evaluated on day 44) was 220 % of control, the T/C (dose: 0.06 mg/kg/injection, schedule: Q01DX009 (ip), vehicle: water, evaluated on day 53) was 306 % of control and the T/C (dose: 0.06 mg/kg/injection, schedule: Q01DX009 (ip), vehicle: water, evaluated on day 87) was 233 % of control. For the same molecule, the T/C (dose: 0.06 mg/kg/injection, schedule: Q01DX009 (ip), vehicle: water, evaluated on day 90) was 111 and 376 % of control, the T/C (dose: 0.06 mg/kg/injection, schedule: Q01DX009 (ip), vehicle: water, evaluated on day 93) was 350 % of control and the T/C (dose: 0.06 mg/kg/injection, schedule: Q01DX009 (ip), vehicle: water, evaluated on day 97) was 99 % of control. For the same molecule, the survivor count (dose: 0.06 mg/kg/injection, schedule: Q01DX009 (ip), vehicle: water) was 8 of 8 (2×), the T/C (dose: 0.06 mg/kg/injection, schedule: Q04DX003 (ip), vehicle: saline + alcohol) was 141 % of control and the T/C (dose: 0.08 mg/kg/injection, schedule: Q01DX009 (ip), vehicle: water, evaluated on day 5) was 94, 99, 101 % of control. The T/C (dose: 0.08 mg/kg/injection, schedule: Q01DX009 (ip), vehicle: water, evaluated on day 67) was 101 % of control, the T/C (dose: 0.08 mg/kg/injection, schedule: Q04DX003 (ip), vehicle: saline) was 145 % of control and the survivor count (dose: 0.09 mg/kg/injection, schedule: Q01DX009 (ip), vehicle: water) was 7 of 8. The survivor count (dose: 0.1 mg/kg/injection, schedule: Q01DX005 (ip), vehicle: saline + alcohol) was 6 of 6, the T/C [1] was 172 and 189 % of control and the survivor count [1] was 6 of 6. For the same molecule, the survivor count (dose: 0.13 mg/kg/injection, schedule: Q01DX009 (ip), vehicle: water) was 3 of 3, the T/C (dose: 0.2 mg/kg/injection, schedule: Q01DX001 (ip), vehicle: water, evaluated on day 5) was 166 and 187 % of control and the T/C (dose: 0.2 mg/kg/injection, schedule: Q01DX001 (ip), vehicle: water, evaluated on day 35) was 166 % of control. The T/C (dose: 0.2 mg/kg/injection, schedule: Q01DX001 (ip), vehicle: water, evaluated on day 45) was 187 % of control, the survivor count (dose: 0.2 mg/kg/injection, schedule: Q01DX005 (ip), vehicle: saline + alcohol) was 4 of 6 and the survivor count (dose: 0.2 mg/kg/injection, schedule: Q01DX009 (ip), vehicle: water) was 6 of 6. For the same molecule, the survivor count (dose: 0.25 mg/kg/injection, schedule: Q01DX009 (ip), vehicle: water) was 3 of 3, the T/C (dose: 0.3 mg/kg/injection, schedule: Q01DX001 (ip), vehicle: water, evaluated on day 5) was 192 and 201 % of control and the T/C (dose: 0.3 mg/kg/injection, schedule: Q01DX001 (ip), vehicle: water, evaluated on day 35) was 201 % of control. For the same molecule, the T/C (dose: 0.3 mg/kg/injection, schedule: Q01DX001 (ip), vehicle: water, evaluated on day 45) was 192 % of control.
